Paper PMC7726220
Where two headings read alike, the source gives them in different places. These are yes or no findings as the source states them, for the method shown. In cells and extracts the contact can be indirect. Some results given as binding are weak or reduced against the parent protein; the word gives no strength. Where a sequence is shown, tags or fusion partners need not be part of it. Values belong to the molecule of their own block, whether it stands above or below them.

Chains of the proteins cited; added tags and fusions are not shown. Residues count along the entry.
UniProt P27467, residues 19-352: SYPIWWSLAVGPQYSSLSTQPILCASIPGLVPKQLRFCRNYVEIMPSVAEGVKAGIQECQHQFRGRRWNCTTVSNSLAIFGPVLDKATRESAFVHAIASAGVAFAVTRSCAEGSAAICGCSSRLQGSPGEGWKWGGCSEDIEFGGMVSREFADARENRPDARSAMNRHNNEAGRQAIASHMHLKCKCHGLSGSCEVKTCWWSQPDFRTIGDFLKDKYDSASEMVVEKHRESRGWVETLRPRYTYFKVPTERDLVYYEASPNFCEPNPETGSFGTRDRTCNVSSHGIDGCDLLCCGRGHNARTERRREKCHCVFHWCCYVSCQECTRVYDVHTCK

Experiments:
Assay in all cases: co-IP; HEK 293T cells transiently transfected with tagged constructs (or endogenous partner); lysis in 50 mM Tris-HCl pH 8.0, 150 mM NaCl, 10% glycerol, 1 mM EDTA, 1% DDM or 0.5% NP-40; anti-Flag M2, anti-c-Myc or anti-HA magnetic beads; Western blot; in Figure 6D with or without overexpressed TMEM132A
[1] = target: T1, Flag-tagged full-length TMEM132A (FL T132A-Flag) (mouse) (UniProt Q922P8)
T1 sequence: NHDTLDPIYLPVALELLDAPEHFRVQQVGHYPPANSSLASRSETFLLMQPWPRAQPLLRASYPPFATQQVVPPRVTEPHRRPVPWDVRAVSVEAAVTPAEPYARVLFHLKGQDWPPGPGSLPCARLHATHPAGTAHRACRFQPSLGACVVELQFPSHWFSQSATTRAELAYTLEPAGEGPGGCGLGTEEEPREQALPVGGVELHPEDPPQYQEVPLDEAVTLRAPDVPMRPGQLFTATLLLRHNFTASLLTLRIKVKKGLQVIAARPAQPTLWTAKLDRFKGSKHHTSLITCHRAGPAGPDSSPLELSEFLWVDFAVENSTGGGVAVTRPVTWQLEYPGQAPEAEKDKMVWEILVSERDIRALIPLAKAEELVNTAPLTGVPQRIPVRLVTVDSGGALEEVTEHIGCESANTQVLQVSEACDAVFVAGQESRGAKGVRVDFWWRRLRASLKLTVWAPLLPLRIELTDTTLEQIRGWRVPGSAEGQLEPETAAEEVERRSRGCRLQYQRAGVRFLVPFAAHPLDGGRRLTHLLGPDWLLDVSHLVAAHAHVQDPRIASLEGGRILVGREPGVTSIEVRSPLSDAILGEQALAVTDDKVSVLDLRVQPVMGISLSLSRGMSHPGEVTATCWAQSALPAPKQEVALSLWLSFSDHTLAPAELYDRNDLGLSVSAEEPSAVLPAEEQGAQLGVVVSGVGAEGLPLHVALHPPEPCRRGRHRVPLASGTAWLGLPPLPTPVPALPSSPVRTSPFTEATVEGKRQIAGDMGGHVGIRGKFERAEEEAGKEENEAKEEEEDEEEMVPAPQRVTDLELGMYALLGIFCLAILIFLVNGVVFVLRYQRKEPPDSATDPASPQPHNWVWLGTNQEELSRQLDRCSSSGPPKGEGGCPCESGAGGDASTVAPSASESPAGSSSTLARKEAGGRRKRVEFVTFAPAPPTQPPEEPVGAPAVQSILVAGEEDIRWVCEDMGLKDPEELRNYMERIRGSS

[2] = target: T2, FL Myc-tagged WLS (WLS-Myc) (mouse) (UniProt Q6DID7)
T2 sequence: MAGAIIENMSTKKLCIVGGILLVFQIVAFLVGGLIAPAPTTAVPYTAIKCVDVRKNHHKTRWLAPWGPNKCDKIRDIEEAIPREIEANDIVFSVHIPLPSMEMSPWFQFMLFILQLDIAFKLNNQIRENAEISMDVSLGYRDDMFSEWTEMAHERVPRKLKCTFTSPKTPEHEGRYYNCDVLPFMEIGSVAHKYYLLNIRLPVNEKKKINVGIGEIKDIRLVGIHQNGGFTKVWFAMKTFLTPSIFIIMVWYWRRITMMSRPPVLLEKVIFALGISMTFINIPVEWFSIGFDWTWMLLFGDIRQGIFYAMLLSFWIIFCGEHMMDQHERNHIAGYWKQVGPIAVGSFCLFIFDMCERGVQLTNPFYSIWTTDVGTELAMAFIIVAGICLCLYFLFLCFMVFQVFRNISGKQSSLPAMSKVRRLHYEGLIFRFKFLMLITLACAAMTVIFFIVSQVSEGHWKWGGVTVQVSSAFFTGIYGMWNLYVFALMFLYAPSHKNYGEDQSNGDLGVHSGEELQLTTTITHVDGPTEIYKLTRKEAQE

[3] = target: T1, Flag-tagged full-length TMEM132A (FL T132A-Flag) (mouse); remark: listed apart in the source
[4] = target: T3, SNT truncation of T132A-Flag (mouse) (UniProt Q922P8)
T3 sequence: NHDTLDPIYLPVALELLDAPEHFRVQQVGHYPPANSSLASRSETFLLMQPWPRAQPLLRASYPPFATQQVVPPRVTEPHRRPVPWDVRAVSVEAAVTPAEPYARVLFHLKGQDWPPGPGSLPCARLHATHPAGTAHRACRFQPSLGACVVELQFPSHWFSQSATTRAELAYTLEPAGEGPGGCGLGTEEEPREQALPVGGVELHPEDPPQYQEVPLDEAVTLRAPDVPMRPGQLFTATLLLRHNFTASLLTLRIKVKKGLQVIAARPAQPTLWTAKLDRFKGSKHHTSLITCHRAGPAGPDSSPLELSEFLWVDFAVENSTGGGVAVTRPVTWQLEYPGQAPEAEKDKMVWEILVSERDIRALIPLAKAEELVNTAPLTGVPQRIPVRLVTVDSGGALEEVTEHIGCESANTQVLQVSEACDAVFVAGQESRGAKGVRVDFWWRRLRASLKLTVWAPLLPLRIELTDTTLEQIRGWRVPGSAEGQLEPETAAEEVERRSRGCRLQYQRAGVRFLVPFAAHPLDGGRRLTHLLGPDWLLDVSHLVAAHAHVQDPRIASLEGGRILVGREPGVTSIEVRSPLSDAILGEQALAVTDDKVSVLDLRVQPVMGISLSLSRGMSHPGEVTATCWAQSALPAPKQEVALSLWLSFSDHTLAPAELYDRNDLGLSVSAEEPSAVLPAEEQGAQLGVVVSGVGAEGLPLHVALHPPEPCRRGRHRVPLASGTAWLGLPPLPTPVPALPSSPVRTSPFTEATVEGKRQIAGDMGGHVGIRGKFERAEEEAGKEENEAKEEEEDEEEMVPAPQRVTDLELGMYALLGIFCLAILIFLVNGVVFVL

[5] = target: T4, STC truncation of T132A-Flag (mouse) (UniProt Q922P8)
T4 sequence: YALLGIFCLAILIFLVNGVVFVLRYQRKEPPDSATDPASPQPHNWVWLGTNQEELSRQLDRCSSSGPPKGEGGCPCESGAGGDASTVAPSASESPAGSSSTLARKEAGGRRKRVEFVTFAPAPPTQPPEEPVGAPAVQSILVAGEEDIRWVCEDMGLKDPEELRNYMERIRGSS

- binding [1]: binds
- binding [2]: binds
Molecule: HA-tagged WNT3A (FL WNT3A-HA) (from UniProt P27467 19-352) (ligand)

- binding [3]: binds
- binding [4]: binds
- binding [5]: no binding
B1: HA-tagged full-length TMEM132A (FL T132A-HA) (protein, UniProt Q922P8 33-1018)
chain: T1 sequence
